Assay results from patent US20250241890A1, “1,4-DIUREAS AND 1,4-DITHIOUREAS AND USES THEREOF” (Purdue Research Foundation, priority 2024, published 2025).
At least one compound was matched to its structure with a doubt left.

Amino acid sequences for entries named in this document (tags omitted). Residues count along the entry.
UniProt P10636, 1-383 isoform P10636-6: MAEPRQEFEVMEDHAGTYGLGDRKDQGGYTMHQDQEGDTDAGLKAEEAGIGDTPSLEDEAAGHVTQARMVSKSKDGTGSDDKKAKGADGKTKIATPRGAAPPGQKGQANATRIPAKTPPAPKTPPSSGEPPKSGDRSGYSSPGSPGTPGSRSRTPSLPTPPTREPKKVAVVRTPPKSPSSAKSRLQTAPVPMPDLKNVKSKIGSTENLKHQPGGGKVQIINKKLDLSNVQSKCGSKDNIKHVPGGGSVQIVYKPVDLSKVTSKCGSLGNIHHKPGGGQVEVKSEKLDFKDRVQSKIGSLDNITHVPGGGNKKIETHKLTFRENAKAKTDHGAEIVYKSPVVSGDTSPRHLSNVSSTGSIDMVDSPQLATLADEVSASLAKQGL

Target: T1, tau isoform 0N4R (Homo sapiens, UniProt P10636)
T1 construct: made in house; host or cells: Rosetta BL21 E. coli
Assay: PICUP assay of tau 0N4R oligomer formation
Assay type: biochemical
Conditions: tau 10 μM, compound 50 μM (molar ratio 1:5)
Procedure: FIG. 5. […] Compounds 1, 2, and 8 were selected for their α-syn anti-oligomerization activity. Compound 7 was used as di-urea counterpart of compound 8, as compound 1 is the di-urea counterpart of compound 2, a dithiourea derivative. Tau (10 μM) was cross-linked (PICUP assay) with different concentrations of the di-substituted aminoindolyl derivatives at 50 μM (molar ratio 1:5).
Chemical and peptide source. Dimethylsulfoxide (DMSO) and thioflavin-T (ThT) were purchased from Alfa Aesar (Ward Hill, MA). Recombinant α-synuclein (α-syn) was procured from rPeptide (WatKinsville, GA). […] General Characterizations. ^1H and ^13C {1H} NMR spectra were recorded using a 500 MHz Bruker instrument working at a frequency of 500 MHz for ^1H and at 126 MHz for ^13C. […] Thioflavin fluorescence assays. Thioflavin fluorescence assays were used to monitor fibril formation of commercial recombinant α-syn at a final concentration of 2 μM and treated with control DMSO and different compounds. […] Kinetics of fibril formation have been performed using ThT as published previously.^6, 12, 13, 24 The fluorescence emission experiments were performed with the excitation and emission wavelengths set at 440 and 485 nm, respectively, with a Synergy HT multi-mode microplate reader (BioTek, Winooski, VT). Samples were measured in three replicates. […]

**Q.** `O=C(Nc1ccc(NC(=O)Nc2cccc3[nH]ccc23)cc1)Nc1cccc2[nH]ccc12` [Compound 1, 3-(1H-indol-4-yl)-1-(4-{[(1H-indol-4-yl)carbamoyl]amino}phenyl)urea] was tested. Which “effect on tau 0N4R oligomer formation by PICUP” value did it give?
**A.** Its value is “None of these compounds were able to reduce the tau 0N4R oligomer formation”.
